{
  "source": "paper PMC4519142",
  "binders": {"B1": {"name": "IFT25 (protein, UniProt Q9Y547 1-144)", "chain": "MRKIDLCLSSEGSEVILATSSDEKHPPENIIDGNPETFWTTTGMFPQEFIICFHKHVRIERLVIQSYFVQTLKIEKSTSKEPVDFEQWIEKDLVHTEGQLQNEEIVAHDGSATYLRFIIVSAFDHFASVHSVSAEGTVVSNLSS"}, "B2": {"name": "IFT27 (protein, UniProt Q9BW83 1-186)", "chain": "MVKLAAKCILAGDPAVGKTALAQIFRSDGAHFQKSYTLTTGMDLVVKTVPVPDTGDSVELFIFDSAGKELFSEMLDKLWESPNVLCLVYDVTNEESFNNCSKWLEKARSQAPGISLPGVLVGNKTDLAGRRAVDSAEARAWALGQGLECFETSVKEMENFEAPFHCLAKQFHQLYREKVEVFRALA"}},
  "target": "T1, PDZD7 (bait of the tandem affinity purification) (UniProt Q9H5P4)",
  "T1 sequence": "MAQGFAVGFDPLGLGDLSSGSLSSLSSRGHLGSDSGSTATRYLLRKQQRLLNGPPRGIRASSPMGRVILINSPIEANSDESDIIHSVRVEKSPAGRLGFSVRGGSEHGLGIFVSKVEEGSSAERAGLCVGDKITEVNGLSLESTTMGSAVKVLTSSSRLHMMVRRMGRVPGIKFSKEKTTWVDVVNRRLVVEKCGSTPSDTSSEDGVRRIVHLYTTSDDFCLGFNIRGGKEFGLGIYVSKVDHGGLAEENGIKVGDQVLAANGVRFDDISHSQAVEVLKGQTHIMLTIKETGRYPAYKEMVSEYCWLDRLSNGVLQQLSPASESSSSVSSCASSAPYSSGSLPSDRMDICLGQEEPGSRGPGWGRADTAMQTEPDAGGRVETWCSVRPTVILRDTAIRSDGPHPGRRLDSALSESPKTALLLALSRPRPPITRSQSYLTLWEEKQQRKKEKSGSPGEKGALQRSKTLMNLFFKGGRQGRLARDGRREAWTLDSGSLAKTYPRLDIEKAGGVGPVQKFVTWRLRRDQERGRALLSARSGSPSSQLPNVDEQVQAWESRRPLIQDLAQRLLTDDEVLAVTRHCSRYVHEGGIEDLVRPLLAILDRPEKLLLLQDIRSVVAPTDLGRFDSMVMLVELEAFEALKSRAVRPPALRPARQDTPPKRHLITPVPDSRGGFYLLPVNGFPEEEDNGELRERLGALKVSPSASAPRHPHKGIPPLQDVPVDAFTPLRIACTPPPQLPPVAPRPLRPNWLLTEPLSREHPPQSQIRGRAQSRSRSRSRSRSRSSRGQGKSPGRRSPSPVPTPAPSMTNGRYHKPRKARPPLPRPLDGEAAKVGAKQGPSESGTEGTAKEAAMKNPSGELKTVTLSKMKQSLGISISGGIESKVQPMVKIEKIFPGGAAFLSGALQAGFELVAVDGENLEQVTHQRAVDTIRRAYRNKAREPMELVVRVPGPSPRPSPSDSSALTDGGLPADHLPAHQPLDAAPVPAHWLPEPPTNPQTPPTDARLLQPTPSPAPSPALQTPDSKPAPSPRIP",
  "assay": "affinity purification with mass spectrometry; tandem affinity purification (TAP) with the USH protein as bait; cells, conditions and way of detection not told",
  "note": "Results are given in words; binding and its absence hold for the method and conditions named. In cells and extracts the contact can be indirect. Here binding means that the protein was enriched with, or labelled near, the bait; the list need not be complete.",
  "data": [
    {"binder": "B1", "values": [
      {"measurement": "binding", "value": "binds"}
    ]},
    {"binder": "B2", "values": [
      {"measurement": "binding", "value": "binds"}
    ]}
  ]
}
